Results: patent US20230159646A1 (IBIO, published 2023)
No constants are given. Whether binding was seen depends on the method and setting. Some entries that bind do so weakly or less than the wild type.

The chains behind the UniProt entries cited, without tags or fusion partners. Where a name states a change or a piece, a line headed by the entry shows the natural chain unless it says otherwise. A line that says so, or that is headed by a name, gives the form on record, which may keep a tag or linker. Residues count along the entry.
UniProt P01589: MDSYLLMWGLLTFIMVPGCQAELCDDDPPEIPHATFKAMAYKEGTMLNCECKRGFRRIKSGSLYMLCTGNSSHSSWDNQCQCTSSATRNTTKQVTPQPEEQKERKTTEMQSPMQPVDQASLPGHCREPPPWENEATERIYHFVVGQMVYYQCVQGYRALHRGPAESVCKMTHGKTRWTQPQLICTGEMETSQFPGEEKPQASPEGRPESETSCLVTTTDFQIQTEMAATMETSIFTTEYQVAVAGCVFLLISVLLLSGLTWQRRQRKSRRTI
CD25 endogenously expressed on SUDHL-1 human lymphoma cell line and on induced human Treg (iTreg): residues 22-272 of P01589
human CD25 (Sino Biologicals, 10165-H08H): residues 22-213 of P01589
cynomolgus CD25 (Sino Biologicals, 90265-C08H) (H6WS54, form named): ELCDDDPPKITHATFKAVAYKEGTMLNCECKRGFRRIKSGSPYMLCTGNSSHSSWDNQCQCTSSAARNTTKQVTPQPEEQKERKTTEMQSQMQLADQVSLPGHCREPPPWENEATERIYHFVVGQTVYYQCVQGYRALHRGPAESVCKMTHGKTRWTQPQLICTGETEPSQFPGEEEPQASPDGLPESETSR

Legend:
[1] = molecular target: CD25 endogenously expressed on SUDHL-1 human lymphoma cell line and on induced human Treg (iTreg) (human) (UniProt P01589); assay: flow cytometry, iTreg cells (legend of FIG. 18)
[2] = molecular target: CD25 endogenously expressed on SUDHL-1 human lymphoma cell line and on induced human Treg (iTreg) (human) (UniProt P01589); assay: flow cytometry at 10 µg/mL, SUDHL-1 and iTreg cells
[3] = molecular target: CD25 endogenously expressed on SUDHL-1 human lymphoma cell line and on induced human Treg (iTreg) (human) (UniProt P01589); assay: flow cytometry, SUDHL-1 cells (legend of FIG. 13)
[4] = molecular target: CD25 endogenously expressed on SUDHL-1 human lymphoma cell line and on induced human Treg (iTreg) (human) (UniProt P01589); assay: cell binding (summary of Example 2)
[5] = molecular target: CD25 endogenously expressed on SUDHL-1 human lymphoma cell line and on induced human Treg (iTreg) (human) (UniProt P01589); assay: flow cytometry, SUDHL-1 and iTreg cells
[6] = molecular target: human CD25 (Sino Biologicals, 10165-H08H) (human) (UniProt P01589); assay: ELISA, immobilized human CD25
[7] = molecular target: CD25 endogenously expressed on SUDHL-1 human lymphoma cell line and on induced human Treg (iTreg) (human) (UniProt P01589); assay: summary of the example's cell binding results
[8] = molecular target: cynomolgus CD25 (Sino Biologicals, 90265-C08H) (cynomolgus) (UniProt H6WS54); assay: summary of the example's binding results
[9] = molecular target: human CD25 (Sino Biologicals, 10165-H08H) (human) (UniProt P01589); assay: summary of the example's binding results
[10] = molecular target: cynomolgus CD25 (Sino Biologicals, 90265-C08H) (cynomolgus) (UniProt H6WS54); assay: ELISA, immobilized cynomolgus CD25
[11] = molecular target: CD25 endogenously expressed on SUDHL-1 human lymphoma cell line and on induced human Treg (iTreg) (human) (UniProt P01589); assay: flow cytometry at 10 µg/mL, SUDHL-1 and iTreg cells (legend of FIGS. 21A-21F)

Measured: binding

B1: IBIO-101-CHO-WT (SD-889825-CW-A; IBIO-101, wild-type CHO cells) (antibody, human IgG1, kappa, V domains shown)
VH: QVQLVQSGAEVKKPGASLKISCKGSGYTFTDYAMHWVRQAPGQGLEWIGVISTYSGDAIYAQKFQGRATMTVDTSTSTAYLELSSLRSEDTAVYYCARGVTFDYWGQGTTVTVSS
VL: DIQMTQSPSSLSASVGDRVTITCRASQDISNYLEWYQQKPGKAPKLLVYNAKTLAEGVPSRFSGSGSGTDFTLTISSLQPEDFGTYYCQHHYDTPYTFGQGTKLEIKR
notes: the entries carry the plant extensin signal peptide, which is not part of the mature antibody; Human IgG1 constant region, fucosylated (WT); also called RTX-003; hD11
binds: [1] | [2] | [3] | [4] | [5] | [6] | [7] | [8] | [9] | [10] | [11]

B2: IBIO-101-CHO-afuc (SD-889825-CG-A; IBIO-101, CHO cells Afucosylated) (antibody, human IgG1, kappa, V domains shown)
VH: QVQLVQSGAEVKKPGASLKISCKGSGYTFTDYAMHWVRQAPGQGLEWIGVISTYSGDAIYAQKFQGRATMTVDTSTSTAYLELSSLRSEDTAVYYCARGVTFDYWGQGTTVTVSS
VL: DIQMTQSPSSLSASVGDRVTITCRASQDISNYLEWYQQKPGKAPKLLVYNAKTLAEGVPSRFSGSGSGTDFTLTISSLQPEDFGTYYCQHHYDTPYTFGQGTKLEIKR
modifications: afucosylated glycan (as printed: afucosylated)
notes: signal peptide of the entries is not part of the mature antibody; Human IgG1 constant region, afucosylated; also called RTX-003; hD11
binds: [1] | [2] | [3] | [4] | [5] | [6] | [7] | [8] | [9] | [10] | [11]

B3: IBIO-101-plant-WT (SD-889825-PW-A; IBIO-101, wild-type plant) (antibody, human IgG1, kappa, V domains shown)
VH: QVQLVQSGAEVKKPGASLKISCKGSGYTFTDYAMHWVRQAPGQGLEWIGVISTYSGDAIYAQKFQGRATMTVDTSTSTAYLELSSLRSEDTAVYYCARGVTFDYWGQGTTVTVSS
VL: DIQMTQSPSSLSASVGDRVTITCRASQDISNYLEWYQQKPGKAPKLLVYNAKTLAEGVPSRFSGSGSGTDFTLTISSLQPEDFGTYYCQHHYDTPYTFGQGTKLEIKR
notes: Signal peptide of the entries is not part of the mature antibody; Made in wild-type Nicotiana benthamiana; human IgG1 constant region; also called RTX-003; hD11
binds: [1] | [2] | [3] | [4] | [5] | [6] | [7] | [8] | [9] | [10] | [11]
